The values that follow come from patent US8124380B2 (priority 2003, dated 2012).

A short description of data set [1]: general procedure: peptide synthesis; Fmoc Pal Peg Ps resin. As to conditions: whole synthesis, scale 0.1 mmol.

In the case of “PADRE-Lys-(thiomethyl)carbonylaminoethyl α-D-glucopyranosyl-(1→4)-α-L-rhamnopyranosyl-(1→3)-2-acetamido-2-deoxy-β-D-glucopyranoside”, the “final HPLC purity” value in “peptide synthesis” (conjugation step, 230 nm) is given as 100% pure. Further, the conjugation yield in “peptide synthesis” (conjugation step, run 1) stood at 58%; in “peptide synthesis” (conjugation step, run 2), 62%.

On to “PADRE-Lys-(thiomethyl)carbonylaminoethyl α-L-rhamnopyranosyl-(1→2)-α-L-rhamnopyranosyl-(1→3)-[α-D-glucopyranosyl)-(1→4)]-(α-L-rhamnopyranosyl-(1→3)-2-acetamido-2-deoxy-β-D-glucopyranoside”, for which the conjugation yield in the data set “peptide synthesis” (conjugation step) came out at 46%. The “final HPLC purity” value in “peptide synthesis” (conjugation step, 230 nm) is 100% pure.

As for Maleimido Activated PADRE Lys, the “final HPLC purity” value in “peptide synthesis” (whole synthesis, 214 nm) worked out at 94% pure. In data set [1], this substance registered a crude mass of 157 mg, an isolated mass of 107 mg and an isolated yield of 61%.

As to “PADRE (thiomethyl)carbonylaminoethyl α-L-rhamnopyranosyl-(1→2)-α-L-rhamnopyranosyl-(1→3)-[α-D-glucopyranosyl-(1→4)]-α-L-rhamnopyranosyl-(1→3)-2-acetamido-2-deoxy-β-D-glucopyranosyl-(1→2)-α-L-rhamnopyranosyl-(1→2)-α-L-rhamnopyranosyl-(1→3)-[α-D-glucopyranosyl-(1→4)]-α-L-rhamnopyranosyl-(1→3)-2-acetamido-2-deoxy-β-D-glucopyranoside”, in the data set “peptide synthesis” (conjugation step), the conjugation yield was found to be 44%. Also, in “peptide synthesis” (conjugation step, 230 nm), the “final HPLC purity” value was determined as 100% pure.

With “PADRE-conjugate of 2-aminoethyl hexasaccharide (neoglycopeptide)”, the “final HPLC purity” value in the data set “peptide synthesis” (conjugation step, 230 nm) was determined as 100% pure. Also, the conjugation yield is given as 58% in “peptide synthesis” (conjugation step, run 1) and 53% in “peptide synthesis” (conjugation step, run 2).

Take “PADRE (thiomethyl)carbonylaminoethyl α-L-rhamnopyranosyl-(1→2)-α-L-rhamnopyranosyl-(1→3)-[α-D-glucopyranosyl-(1→4)]-α-L-rhamnopyranosyl-(1→3)-2-acetamido-2-deoxy-β-D-glucopyranosyl-(1→2)-α-L-rhamnopyranosyl-(1→2)-α-L-rhamnopyranosyl-(1→3)-[α-D-glucopyranosyl-(1→4)]-α-L-rhamnopyranosyl-(1→3)-2-acetamido-2-deoxy-β-D-glucopyranosyl-(1→2)-α-L-rhamnopyranosyl-(1→2)-α-L-rhamnopyranosyl-(1→3)-[α-D-glucopyranosyl-(1→4)]-α-L-rhamnopyranosyl-(1→3)-2-acetamido-2-deoxy-β-D-glucopyranoside”: the conjugation yield in the data set “peptide synthesis” (conjugation step) is 67%. The “final HPLC purity” value in the data set “peptide synthesis” (conjugation step, 230 nm) is recorded as 100% pure.
